Data: article PMC12431657, “Discovery and mechanistic insights of dibenzoylmethane as a broad spectrum inhibitor of coronavirus” (PLOS Pathogens, 2025)
Where a name gives a salt, the structure may show the parent alone. Read-outs that look alike come from different tables or passages of the source. Hit rate of the full screen: of about 3,300 compounds, about 60 (2%) showed an effect of 50% or more. This is one part of the list.

System: HCoV-OC43
Set-up: species or system RD; HTS, protection from HCoV-OC43 induced cell death, luminescent cell viability (CellCounting-Lite 2.0), inhibition rate
Conditions: 24 h post infection, 1 h compound pre-incubation, 10 µM, inhibitor

SMILES	OC43 Inhibition rate [%]	OC43 Inhibition rate (OC43 Inhibition rate, 24 h) [%]
C[C@@H]1CC[C@@]2(OC1)O[C@H]1C[C@H]3[C@@H]4CC=C5C[C@@H](O[C@@H]6O[C@H](CO)[C@@H](O[C@@H]7O[C@@H](C)[C@H](O)[C@@H](O)[C@H]7O)[C@H](O)[C@H]6O[C@@H]6O[C@@H](C)[C@H](O)[C@@H](O)[C@H]6O)CC[C@]5(C)[C@H]4CC[C@]3(C)[C@H]1[C@@H]2C [Dioscin]	-0.2	–
CC1(C)C=Cc2c(ccc3c2OC[C@@H](c2ccc(O)cc2O)C3)O1 [Glabridin]	-1.6	–
O=c1cc[nH]c(=O)[nH]1 [Uracil]	-0.3	–
O=C(O)[C@H]1O[C@@H](Oc2cc(O)c3c(=O)cc(-c4ccc(O)cc4)oc3c2)[C@H](O)[C@@H](O)[C@@H]1O [Apigenin-7-glucuronide]	0.4	–
O=C(O)c1c(O)cccc1O [2,6-Dihydroxybenzoic acid]	3.5	–
COc1cc2c(c(OC)c1OC)-c1c(cc(OC)c(OC)c1OC)C[C@](C)(O)[C@@H](C)C2 [Schisandrin]	-0.2	–
CS(C)(=O)=O [Dimethyl sulfone]	3.1	–
Oc1cc(O)c2c(c1)O[C@H](c1ccc(O)c(O)c1)[C@@H](O)C2 [Catechin]	–	-0.5
C=C[C@]12CN(C)[C@@H]3[C@H]4CO[C@H](C[C@H]41)[C@]1(C(=O)N(OC)c4ccccc41)[C@@H]32 [Gelsevirine]	-1	–
O=C1Nc2ccccc2C1=O [Isatin]	-0.4	–
COc1ccc(-c2cc(=O)c3c(OC)c(OC)c(OC)c(OC)c3o2)cc1 [Tangeretin]	27.2	–
C[C@H](O)C(=O)N[C@@H](Cc1ccccc1)C(=O)O [N-Lactoyl-Phenylalanine]	-1.3	–
C[C@H](CC[C@@H](O)C(C)(C)O)[C@H]1CC[C@@]2(C)[C@@H]3CC=C4[C@@H](CC[C@H](O)C4(C)C)[C@]3(C)C(=O)C[C@]12C [Bryodulcosigenin]	13.2	–
N[C@@H](Cc1cc(I)c(O)c(I)c1)C(=O)O [(S)-2-Amino-3-(4-hydroxy-3,5-diiodophenyl)propanoic acid dihydrate]	0.8	–
CN1C(C(=O)Nc2ccccn2)=C(O)c2sc(Cl)cc2S1(=O)=O [Lornoxicam]	5.4	–
COc1ccc2c3c1O[C@H]1C[C@@H](O)C=C[C@@]31CCN(C)C2 [Galanthamine]	–	-0.2
OC[C@H]1O[C@@H](Oc2cc(O)cc(/C=C/c3ccc(O[C@@H]4O[C@H](CO)[C@@H](O)[C@H](O)[C@H]4O)cc3O)c2)[C@H](O)[C@@H](O)[C@@H]1O [Mulberroside A]	0.3	–
OC1OC[C@@H](O)[C@@H](O)[C@@H]1O (stereo partly drawn) [D-arabinose]	–	3.8
O=C1C=CC[C@@H]2[C@H]3CCCN4CCC[C@@H](CN12)[C@@H]34 [Sophocarpine]	–	-0.5
COc1cc(OC)c2c(=O)cc(-c3ccc(O)c(O)c3)oc2c1 [5,7-Dimethoxyluteolin]	-0.8	–
NCCc1c[nH]cn1 [Histamine]	–	0.9
CC1(C)CC[C@]2(C(=O)O)CC[C@]3(C)C(=CC[C@@H]4[C@@]5(C)CC[C@H](O[C@@H]6O[C@H](C(=O)O)[C@@H](O)[C@H](O)[C@H]6O[C@@H]6O[C@H](CO)[C@@H](O)[C@H](O)[C@H]6O)C(C)(C)[C@@H]5CC[C@]43C)[C@@H]2C1 [Zingibroside R1]	-1.5	–
O=C(O)c1cccnc1 [Niacin]	-0.3	–
CC[C@H]1OC(=O)C[C@@H](O)[C@H](C)[C@@H](O[C@@H]2O[C@H](C)[C@@H](O[C@H]3C[C@@](C)(O)[C@@H](O)[C@H](C)O3)[C@H](N(C)C)[C@H]2O)[C@@H](CC=O)C[C@@H](C)C(=O)/C=C/C(C)=C/[C@@H]1CO[C@@H]1O[C@H](C)[C@@H](O)[C@@H](OC)[C@H]1OC [Tylosin (phosphate)]	–	16.6
O=C(O)c1cc(O)c2c(c1)C(=O)c1cccc(O[C@@H]3O[C@H](CO)[C@@H](O)[C@H](O)[C@H]3O)c1C2=O [Rhein 8-Glucoside]	1.1	–
CC(=O)O[C@@H]1C[C@H](O)[C@@]23CO[C@@H](O)[C@]1(C)[C@@H]2C[C@@H](O)[C@]1(C)[C@@H]3C(=O)[C@H](OC(C)=O)[C@@]2(C)[C@H](c3ccoc3)C[C@H]3O[C@]321 [Toosendanin]	-0.8	–

An excerpt of the results above, as a working copy:
SMILES	OC43 Inhibition rate [%]	OC43 Inhibition rate (OC43 Inhibition rate, 24 h) [%]
C[C@H](O)C(=O)N[C@@H](Cc1ccccc1)C(=O)O [N-Lactoyl-Phenylalanine]	-1.3	–
C[C@H](CC[C@@H](O)C(C)(C)O)[C@H]1CC[C@@]2(C)[C@@H]3CC=C4[C@@H](CC[C@H](O)C4(C)C)[C@]3(C)C(=O)C[C@]12C [Bryodulcosigenin]	13.2	–

The list continues.

SMILES	OC43 Inhibition rate [%]	OC43 Inhibition rate (OC43 Inhibition rate, 24 h) [%]
C[C@H](CO[C@@H]1O[C@H](CO)[C@@H](O)[C@H](O)[C@H]1O)[C@H]1CC[C@@]2(CC[C@]3(C)[C@H](CC[C@@H]4[C@@]5(C)CC[C@H](O[C@@H]6O[C@H](CO)[C@@H](O)[C@H](O)[C@H]6O[C@@H]6O[C@H](CO)[C@@H](O)[C@H](O)[C@H]6O)[C@@](C)(CO)[C@@H]5CC[C@]43C)[C@H]2O)CO1 [Hosenkoside B]	7.2	–
CC1(C)CCC2(CO)C(=C3C=CC4C5(C)CCC(OC6OC(COC7OC(CO)C(O)C(O)C7O)C(OC7OC(CO)C(O)C(O)C7O)C(O)C6O)CC5C(C)(CO)CC4(C)C3(C)CC2O)C1 (stereo not shown) [Clinodiside A]	0.1	–
COc1cc(/C=C/C(=O)O[C@H]2[C@H](O)[C@@H](CO)O[C@@]2(CO)O[C@H]2O[C@H](COC(=O)c3ccc(O)cc3)[C@@H](O)[C@H](O)[C@H]2O)cc(OC)c1OC [Tenuifoliside A]	0.3	–
CC(C)[C@@H]1CC[C@@H](C)C[C@H]1O [Menthol]	–	-0.2
CC(C)CCC[C@@H](C)[C@H]1CC[C@H]2[C@@H]3CC=C4C[C@@H](OS(=O)(=O)O)CC[C@]4(C)[C@H]3CC[C@]12C [Cholesteryl sulfate (sodium)]	4.6	–
O=C(O)c1c[nH]c(=O)[nH]c1=O [2,4-Dihydroxypyrimidine-5-carboxylic Acid]	-0.8	–
N[C@@H](Cc1ccc(O)c([N+](=O)[O-])c1)C(=O)O [3-Nitro-L-tyrosine]	-2.3	–
COc1ccc(/C=C/c2cc(O)cc(O[C@@H]3O[C@H](CO)[C@@H](O)[C@H](O)[C@H]3O)c2)cc1O [Rhapontin]	-0.2	–
C=C[C@H]1[C@H](O[C@@H]2O[C@H](CO)[C@@H](O)[C@H](O)[C@H]2O)OC=C(C(=O)OC)[C@H]1CCOC(=O)c1cc(O)c(O)c(O)c1 [Cornuside]	-1.6	–
CCCCCCCCOC(C)=O [Octyl acetate]	2.7	–
O=C(O)CO [Glycolic acid]	2.8	–
COc1cc2c(cc1OC)C1=Cc3ccc(OC)c(OC)c3CN1CC2 [Dihydropalmatine]	2.2	–
CC1(C)[C@@H](O[C@H]2O[C@H](C(=O)O)[C@@H](O)[C@H](O)[C@H]2O[C@@H]2O[C@H](C(=O)O)[C@@H](O)[C@H](O)[C@H]2O)CC[C@]2(C)[C@H]3C(=O)C=C4[C@@H]5C[C@@](C)(C(=O)O)CC[C@]5(C)CC[C@@]4(C)[C@]3(C)CC[C@@H]12 [Ammonium glycyrrhizinate]	–	0
CC(C)[C@H](C)[C@@H](O)[C@H](O)[C@@H](C)[C@H]1CC[C@H]2[C@@H]3COC(=O)[C@H]4C[C@H](O)[C@H](O)C[C@]4(C)[C@H]3CC[C@]12C [Brassinolide]	-1.2	–
COc1ccc(-c2cc(=O)c3c(O)c(OC)c(OC)cc3o2)cc1 [Salvigenin]	0.5	–
N[C@@H](Cc1c[nH]cn1)C(=O)O [L-Histidine]	–	1.8
C[C@H](CC[C@@H](O[C@@H]1O[C@H](CO)[C@@H](O)[C@H](O)[C@H]1O[C@@H]1O[C@H](CO)[C@@H](O)[C@H](O)[C@H]1O)C(C)(C)O)[C@H]1CC[C@@]2(C)[C@@H]3CC=C4[C@@H](CC[C@H](O)C4(C)C)[C@]3(C)[C@H](O)C[C@]12C [Mogroside II-A]	0.7	–
C[C@H](CC[C@@H](O)C(C)(C)O)[C@H]1CC[C@@]2(C)[C@@H]3CC=C4[C@@H](CC[C@H](O)C4(C)C)[C@]3(C)[C@H](O)C[C@]12C [Mogrol]	0.1	–
C/C=C(/C)C(=O)O[C@H]1C(C)=C[C@]23C(=O)[C@@H](C=C(CO)[C@@H](O)[C@]12O)[C@H]1[C@@H](C[C@H]3C)C1(C)C [Ingenol Mebutate]	1.1	–
C[C@@]12C[C@@]3(O)O[C@@H](O1)[C@]1(COC(=O)c4ccc(O)cc4)[C@H]3C[C@@]12O[C@@H]1O[C@H](CO)[C@@H](O)[C@H](O)[C@H]1O [Oxypaeoniflorin]	-0.1	–
COc1cc2c(cc1OC)[C@@H](Cc1ccc(O)c(Oc3cc4c(cc3OC)CCN(C)[C@@H]4Cc3ccc(O)cc3)c1)N(C)CC2 [Liensinine (Diperchlorate)]	–	24.8
CC(C)=CC[C@H](OC(=O)C=C(C)C)C1=CC(=O)c2c(O)ccc(O)c2C1=O [β,β-Dimethylacrylalkannin]	-0.5	–
O=C(O)[C@H](O)[C@H](O)[C@@H](O)[C@H](O)[C@H](O)CO [NSC 42196]	3.4	–
OC/C=C/c1ccccc1 [Cinnamyl Alcohol]	-0.3	–
C/C=C1\C(=O)C[C@H]2[C@@H]3CCC4=CC(=O)CC[C@]4(C)[C@H]3CC[C@]12C [(Z)-Guggulsterone]	–	0.3
COC(=O)C1=CO[C@@H](O[C@@H]2O[C@H](CO)[C@@H](O)[C@H](O)[C@H]2O)[C@H]2[C@@H]1C=C[C@@]2(O)CO [Gardenoside]	4.5	–
